Assay results from patent US6552167B1 (Gryphon Therapeutics, Inc., priority 1998, dated 2003).

Test: general procedure: peptide synthesis; Sasrin resin (Bachem); HATU/DIEA
Settings: conjugation step, several disulfide bridges

Which conjugation yield does the source give for “amide-GRLPQCVWTMPGMHCAYLGG-COCH2ON═CH—CO-(‘PEG’-succ)12-‘PEG’-CH═NOCH2CO-GGLYACHMGPMTWVCQPLRG-amide” here?
The conjugation yield was 20%.
